Experimental data: paper doi:10.1101/2021.10.03.462970
These are yes or no findings as the source states them, for the method shown. Binding seen in cells or lysates may run through a third protein. Some entries that bind do so weakly or less than the wild type.

Protein sequences, listed by entry. Tags and fused reporters are not part of them. Lines headed by an entry give the natural chain unless they say otherwise; changes in a name come on top.
UniProt P97879, whole entry: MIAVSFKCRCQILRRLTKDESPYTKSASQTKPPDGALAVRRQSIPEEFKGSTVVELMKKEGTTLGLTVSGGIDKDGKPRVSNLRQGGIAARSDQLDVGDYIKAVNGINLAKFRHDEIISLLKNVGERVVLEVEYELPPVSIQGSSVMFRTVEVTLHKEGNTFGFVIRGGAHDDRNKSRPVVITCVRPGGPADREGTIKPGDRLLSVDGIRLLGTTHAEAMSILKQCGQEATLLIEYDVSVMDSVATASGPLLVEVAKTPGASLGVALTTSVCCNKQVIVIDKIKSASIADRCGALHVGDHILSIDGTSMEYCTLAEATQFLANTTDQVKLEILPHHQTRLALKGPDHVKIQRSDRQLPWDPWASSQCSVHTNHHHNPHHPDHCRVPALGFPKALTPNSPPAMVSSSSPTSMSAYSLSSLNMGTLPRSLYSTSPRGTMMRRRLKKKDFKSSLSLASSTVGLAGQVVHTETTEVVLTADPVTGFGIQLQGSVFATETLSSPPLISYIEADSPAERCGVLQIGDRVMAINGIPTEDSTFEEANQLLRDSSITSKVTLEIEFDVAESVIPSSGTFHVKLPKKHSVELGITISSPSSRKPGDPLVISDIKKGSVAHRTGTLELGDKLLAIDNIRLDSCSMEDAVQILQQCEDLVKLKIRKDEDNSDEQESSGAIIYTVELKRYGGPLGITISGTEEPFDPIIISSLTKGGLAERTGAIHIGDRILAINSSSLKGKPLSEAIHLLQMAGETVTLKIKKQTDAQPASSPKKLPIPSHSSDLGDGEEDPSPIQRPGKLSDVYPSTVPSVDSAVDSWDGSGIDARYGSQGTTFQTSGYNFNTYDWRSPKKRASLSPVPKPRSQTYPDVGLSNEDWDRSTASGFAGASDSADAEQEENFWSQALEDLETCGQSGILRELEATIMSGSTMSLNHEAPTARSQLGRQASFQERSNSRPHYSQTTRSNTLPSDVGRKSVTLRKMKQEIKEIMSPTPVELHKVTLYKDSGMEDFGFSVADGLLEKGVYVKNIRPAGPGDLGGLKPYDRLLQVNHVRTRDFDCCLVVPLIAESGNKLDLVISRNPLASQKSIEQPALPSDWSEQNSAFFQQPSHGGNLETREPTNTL

Target: Grip1-V5 (UniProt P97879)
Experiment: co-IP

Substance | binding
GluA3 (AMPA-receptor subunit GluA3), full length (from UniProt P19492-2 23-888) | binds
GluA3 K887A, full length (from UniProt P19492-2 23-888) (receptor) | binds
GluA3 S885A, full length (from UniProt P19492-2 23-888) (receptor) | no binding
